Measured values published in the supplement of paper PMC11006884.
This list holds what a sample rich in targets with a hit left over. The data scatter; read single values as rough. Only a part is listed here, and it is no random draw.

Sequences of proteins named here, by UniProt entry; tags and fusion partners are left off. A change or cut given only in a name is not applied to a line headed by its entry.
UniProt Q9UKV3: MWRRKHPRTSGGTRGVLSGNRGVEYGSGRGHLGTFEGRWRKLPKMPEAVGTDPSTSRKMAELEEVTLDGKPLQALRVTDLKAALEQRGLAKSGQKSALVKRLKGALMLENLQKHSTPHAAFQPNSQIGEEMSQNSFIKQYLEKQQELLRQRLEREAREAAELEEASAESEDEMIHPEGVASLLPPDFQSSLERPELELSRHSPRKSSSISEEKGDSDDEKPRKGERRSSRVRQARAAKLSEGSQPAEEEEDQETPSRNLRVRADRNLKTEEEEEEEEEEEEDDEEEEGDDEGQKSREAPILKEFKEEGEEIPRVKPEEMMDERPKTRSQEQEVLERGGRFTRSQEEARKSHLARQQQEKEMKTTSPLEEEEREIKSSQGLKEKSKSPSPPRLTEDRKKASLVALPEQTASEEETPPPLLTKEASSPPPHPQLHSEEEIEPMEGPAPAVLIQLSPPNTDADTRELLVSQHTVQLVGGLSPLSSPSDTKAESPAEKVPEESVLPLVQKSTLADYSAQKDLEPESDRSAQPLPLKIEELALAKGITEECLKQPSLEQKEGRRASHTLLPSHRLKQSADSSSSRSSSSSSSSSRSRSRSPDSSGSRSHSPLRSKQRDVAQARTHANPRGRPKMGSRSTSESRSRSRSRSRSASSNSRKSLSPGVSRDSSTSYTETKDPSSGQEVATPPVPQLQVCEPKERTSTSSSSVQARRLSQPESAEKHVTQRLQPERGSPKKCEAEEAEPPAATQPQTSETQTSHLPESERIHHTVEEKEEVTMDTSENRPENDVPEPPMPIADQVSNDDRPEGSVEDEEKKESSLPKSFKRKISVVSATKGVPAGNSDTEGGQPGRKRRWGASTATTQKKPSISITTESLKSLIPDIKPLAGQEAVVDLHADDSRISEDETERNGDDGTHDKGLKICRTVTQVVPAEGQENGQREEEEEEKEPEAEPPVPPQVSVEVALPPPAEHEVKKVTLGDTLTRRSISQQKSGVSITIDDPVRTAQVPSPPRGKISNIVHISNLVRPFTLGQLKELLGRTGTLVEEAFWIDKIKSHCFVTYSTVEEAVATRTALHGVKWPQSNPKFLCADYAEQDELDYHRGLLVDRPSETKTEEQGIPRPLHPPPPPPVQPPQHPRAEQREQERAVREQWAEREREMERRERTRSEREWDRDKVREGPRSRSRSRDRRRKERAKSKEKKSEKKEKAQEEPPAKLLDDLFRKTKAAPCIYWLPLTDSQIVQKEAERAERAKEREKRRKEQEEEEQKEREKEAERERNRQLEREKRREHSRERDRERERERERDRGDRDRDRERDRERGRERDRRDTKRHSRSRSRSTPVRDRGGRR
UniProt Q9UMY4: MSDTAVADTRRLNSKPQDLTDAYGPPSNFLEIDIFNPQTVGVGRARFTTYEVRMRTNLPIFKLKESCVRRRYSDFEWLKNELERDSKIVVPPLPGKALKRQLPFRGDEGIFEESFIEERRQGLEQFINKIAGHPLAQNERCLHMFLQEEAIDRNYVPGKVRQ
UniProt Q9UIG0: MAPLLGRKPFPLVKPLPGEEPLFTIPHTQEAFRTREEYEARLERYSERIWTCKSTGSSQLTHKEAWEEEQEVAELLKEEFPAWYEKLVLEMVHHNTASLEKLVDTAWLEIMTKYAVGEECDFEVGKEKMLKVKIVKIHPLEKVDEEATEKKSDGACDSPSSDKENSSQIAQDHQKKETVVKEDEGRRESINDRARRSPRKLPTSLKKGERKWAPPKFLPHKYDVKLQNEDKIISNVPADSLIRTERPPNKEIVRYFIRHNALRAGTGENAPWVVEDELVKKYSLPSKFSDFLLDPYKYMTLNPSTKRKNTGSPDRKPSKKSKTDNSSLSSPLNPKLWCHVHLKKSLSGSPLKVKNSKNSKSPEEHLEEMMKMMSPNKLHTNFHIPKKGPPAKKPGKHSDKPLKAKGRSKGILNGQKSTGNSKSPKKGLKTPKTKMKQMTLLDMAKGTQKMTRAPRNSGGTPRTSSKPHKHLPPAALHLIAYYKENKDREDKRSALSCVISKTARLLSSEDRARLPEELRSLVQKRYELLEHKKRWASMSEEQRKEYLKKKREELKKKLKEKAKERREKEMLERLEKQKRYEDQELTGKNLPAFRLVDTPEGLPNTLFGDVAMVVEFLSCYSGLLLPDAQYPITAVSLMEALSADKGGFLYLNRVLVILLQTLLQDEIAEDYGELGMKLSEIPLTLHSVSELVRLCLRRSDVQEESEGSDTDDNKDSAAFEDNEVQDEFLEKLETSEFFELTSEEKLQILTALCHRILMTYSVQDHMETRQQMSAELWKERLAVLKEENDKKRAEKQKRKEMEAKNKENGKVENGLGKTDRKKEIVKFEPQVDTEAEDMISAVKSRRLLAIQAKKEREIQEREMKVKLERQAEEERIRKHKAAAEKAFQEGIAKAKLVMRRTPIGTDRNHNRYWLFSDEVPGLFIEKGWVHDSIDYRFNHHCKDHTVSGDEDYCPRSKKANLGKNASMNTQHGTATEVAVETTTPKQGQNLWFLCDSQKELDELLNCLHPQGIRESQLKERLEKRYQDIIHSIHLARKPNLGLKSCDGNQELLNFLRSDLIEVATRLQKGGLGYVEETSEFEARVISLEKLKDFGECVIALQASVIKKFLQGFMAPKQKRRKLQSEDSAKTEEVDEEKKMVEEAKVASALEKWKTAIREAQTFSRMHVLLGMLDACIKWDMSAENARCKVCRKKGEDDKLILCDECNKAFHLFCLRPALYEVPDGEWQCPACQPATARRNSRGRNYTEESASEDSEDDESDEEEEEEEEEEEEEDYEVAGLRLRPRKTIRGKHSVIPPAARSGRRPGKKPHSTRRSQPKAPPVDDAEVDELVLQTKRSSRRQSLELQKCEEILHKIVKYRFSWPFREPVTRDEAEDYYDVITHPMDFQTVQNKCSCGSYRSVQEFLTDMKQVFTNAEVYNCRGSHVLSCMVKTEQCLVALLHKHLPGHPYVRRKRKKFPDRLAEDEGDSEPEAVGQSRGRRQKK
UniProt Q9Y2L1: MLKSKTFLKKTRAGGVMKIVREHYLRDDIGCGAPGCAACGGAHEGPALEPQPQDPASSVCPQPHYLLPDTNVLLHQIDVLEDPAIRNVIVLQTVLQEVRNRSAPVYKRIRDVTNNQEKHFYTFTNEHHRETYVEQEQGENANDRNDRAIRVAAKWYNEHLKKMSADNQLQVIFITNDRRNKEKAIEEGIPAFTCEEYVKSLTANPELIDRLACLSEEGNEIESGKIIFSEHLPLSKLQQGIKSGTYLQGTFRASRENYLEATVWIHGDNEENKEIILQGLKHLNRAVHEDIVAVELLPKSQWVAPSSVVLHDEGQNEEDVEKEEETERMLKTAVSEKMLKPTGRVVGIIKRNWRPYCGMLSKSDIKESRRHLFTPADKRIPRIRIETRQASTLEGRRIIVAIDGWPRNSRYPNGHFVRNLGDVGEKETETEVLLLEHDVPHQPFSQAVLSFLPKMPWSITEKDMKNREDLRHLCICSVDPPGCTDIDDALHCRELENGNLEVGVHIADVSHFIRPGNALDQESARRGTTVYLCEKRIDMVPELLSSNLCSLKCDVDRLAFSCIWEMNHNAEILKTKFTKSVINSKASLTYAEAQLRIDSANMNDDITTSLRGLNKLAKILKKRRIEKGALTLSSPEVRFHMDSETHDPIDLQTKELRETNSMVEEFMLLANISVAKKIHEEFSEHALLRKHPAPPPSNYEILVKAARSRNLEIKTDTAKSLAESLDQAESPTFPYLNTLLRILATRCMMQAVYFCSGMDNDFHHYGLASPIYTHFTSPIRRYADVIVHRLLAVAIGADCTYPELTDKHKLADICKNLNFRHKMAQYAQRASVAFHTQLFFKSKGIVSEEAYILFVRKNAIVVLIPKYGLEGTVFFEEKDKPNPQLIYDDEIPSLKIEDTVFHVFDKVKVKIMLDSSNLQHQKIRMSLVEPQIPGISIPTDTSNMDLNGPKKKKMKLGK
UniProt Q9Y2I1: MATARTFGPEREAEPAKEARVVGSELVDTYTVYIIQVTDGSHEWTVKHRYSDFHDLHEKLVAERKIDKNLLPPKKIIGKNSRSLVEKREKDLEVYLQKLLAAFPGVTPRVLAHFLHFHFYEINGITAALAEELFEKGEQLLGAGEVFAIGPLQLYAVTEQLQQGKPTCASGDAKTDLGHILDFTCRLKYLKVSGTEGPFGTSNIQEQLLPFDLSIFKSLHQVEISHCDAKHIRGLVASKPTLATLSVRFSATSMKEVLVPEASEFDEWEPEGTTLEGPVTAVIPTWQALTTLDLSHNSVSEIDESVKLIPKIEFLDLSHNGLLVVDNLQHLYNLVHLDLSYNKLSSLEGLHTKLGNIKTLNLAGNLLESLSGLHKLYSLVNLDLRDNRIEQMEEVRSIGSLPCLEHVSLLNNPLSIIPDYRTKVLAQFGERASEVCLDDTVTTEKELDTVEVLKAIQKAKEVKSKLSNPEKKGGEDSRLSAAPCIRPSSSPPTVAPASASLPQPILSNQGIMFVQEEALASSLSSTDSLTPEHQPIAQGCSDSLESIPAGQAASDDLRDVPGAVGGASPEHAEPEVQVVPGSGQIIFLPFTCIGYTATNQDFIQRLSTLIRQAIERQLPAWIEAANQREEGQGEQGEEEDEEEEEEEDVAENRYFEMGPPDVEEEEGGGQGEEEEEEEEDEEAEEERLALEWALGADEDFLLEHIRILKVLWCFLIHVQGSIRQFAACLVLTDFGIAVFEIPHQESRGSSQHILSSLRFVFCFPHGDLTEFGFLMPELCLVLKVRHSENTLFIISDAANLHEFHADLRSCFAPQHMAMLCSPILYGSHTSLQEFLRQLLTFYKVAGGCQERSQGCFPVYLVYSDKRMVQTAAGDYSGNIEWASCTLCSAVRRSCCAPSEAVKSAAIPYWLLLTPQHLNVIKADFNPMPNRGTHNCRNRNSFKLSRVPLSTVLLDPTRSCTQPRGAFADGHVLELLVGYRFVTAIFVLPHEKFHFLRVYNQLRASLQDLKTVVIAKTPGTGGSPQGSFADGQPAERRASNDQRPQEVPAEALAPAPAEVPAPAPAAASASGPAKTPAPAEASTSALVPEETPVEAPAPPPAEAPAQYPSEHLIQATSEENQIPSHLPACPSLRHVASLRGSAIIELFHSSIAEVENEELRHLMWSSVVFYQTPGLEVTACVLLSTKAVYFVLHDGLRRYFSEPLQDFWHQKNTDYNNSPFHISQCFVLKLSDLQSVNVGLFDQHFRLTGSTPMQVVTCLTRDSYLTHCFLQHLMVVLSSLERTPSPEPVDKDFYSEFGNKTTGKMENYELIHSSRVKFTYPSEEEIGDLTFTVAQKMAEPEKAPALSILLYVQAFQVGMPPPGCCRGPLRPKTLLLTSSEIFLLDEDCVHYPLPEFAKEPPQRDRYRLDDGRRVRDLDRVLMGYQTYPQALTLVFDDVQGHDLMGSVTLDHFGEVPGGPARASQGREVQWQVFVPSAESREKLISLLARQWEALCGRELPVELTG
UniProt Q9UK41: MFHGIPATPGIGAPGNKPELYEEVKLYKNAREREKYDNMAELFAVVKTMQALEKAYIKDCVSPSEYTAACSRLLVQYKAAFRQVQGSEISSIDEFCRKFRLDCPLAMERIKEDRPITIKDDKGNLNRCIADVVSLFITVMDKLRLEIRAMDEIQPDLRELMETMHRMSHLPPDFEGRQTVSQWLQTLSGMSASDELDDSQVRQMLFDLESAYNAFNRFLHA
UniProt Q9Y487, whole entry: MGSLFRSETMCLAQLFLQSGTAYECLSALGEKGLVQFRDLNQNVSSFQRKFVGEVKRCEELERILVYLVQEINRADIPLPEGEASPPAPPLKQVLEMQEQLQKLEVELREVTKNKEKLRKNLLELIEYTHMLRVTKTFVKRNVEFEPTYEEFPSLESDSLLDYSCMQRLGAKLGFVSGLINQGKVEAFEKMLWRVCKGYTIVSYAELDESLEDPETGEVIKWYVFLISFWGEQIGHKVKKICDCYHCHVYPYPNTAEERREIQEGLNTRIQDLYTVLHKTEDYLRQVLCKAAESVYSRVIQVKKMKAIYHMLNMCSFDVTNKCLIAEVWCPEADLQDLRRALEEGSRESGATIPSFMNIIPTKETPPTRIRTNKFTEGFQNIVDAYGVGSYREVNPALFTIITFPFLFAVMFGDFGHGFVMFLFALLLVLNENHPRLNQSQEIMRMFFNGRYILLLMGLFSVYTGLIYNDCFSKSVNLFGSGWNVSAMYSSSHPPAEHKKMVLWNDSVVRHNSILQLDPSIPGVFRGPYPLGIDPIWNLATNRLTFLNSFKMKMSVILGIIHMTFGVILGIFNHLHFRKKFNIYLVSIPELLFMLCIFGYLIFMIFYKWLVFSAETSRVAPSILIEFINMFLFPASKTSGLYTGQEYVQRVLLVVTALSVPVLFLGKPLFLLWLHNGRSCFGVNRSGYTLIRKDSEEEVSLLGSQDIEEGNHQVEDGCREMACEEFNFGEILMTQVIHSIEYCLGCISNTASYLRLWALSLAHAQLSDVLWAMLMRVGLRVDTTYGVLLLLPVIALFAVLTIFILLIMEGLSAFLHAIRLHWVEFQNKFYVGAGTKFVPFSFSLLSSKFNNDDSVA

Compound: COC(=O)/C=C/c1ccccc1 [methyl cinnamate]
Test: log2 ratio of iodoacetamide-alkyne labeling of the cysteine site, DMSO over compound (competition); higher = stronger covalent engagement of the cysteine by the compound, active = 1 or more
Conditions: 500 µM; treatment time 1 h; system: HEK293T cell lysate
Method in brief: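 For each cysteine, the log2 competition ratio is mean control-channel reporter intensity over mean compound-channel reporter intensity. HEK293T lysate (2 mg/mL) was exposed to vehicle or electrophile (500 µM, 1 h, ambient temperature), labelled with iodoacetamide alkyne (1 h), clicked to sCIP-TMT reagents, digested overnight with trypsin at 37 °C, streptavidin-enriched and analysed by Orbitrap Eclipse LC-MS/MS with FAIMS and FragPipe. Cysteines quantified in only one of three replicates, each with duplicate channels, were excluded.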

Q: SAP30BP C127 (UniProt Q9UHR5) was tested. Which “log2 ratio of iodoacetamide-alkyne labeling” value (“log2 ratio” for short) did it give?
A: inactive: 0.667

Q: For DDX20 C538 (UniProt Q9UHI6), which “log2 ratio” value is on record?
A: inactive: 0.249

Q: For UniProt Q9UPN7_C795, which “log2 ratio” value is on record?
A: inactive: -0.0542

Q: How did the “log2 ratio” value turn out when COPS3 C383 (UniProt Q9UNS2) was run?
A: inactive: 0.0971

Q: With ACIN1 C691 (UniProt Q9UKV3) as the target, how does the “log2 ratio” value read?
A: inactive: 0.259

Q: For FCF1 C154 (UniProt Q9Y324), which “log2 ratio” value is on record?
A: inactive: 0.19

Q: How did the “log2 ratio” value turn out when HEG1 C1360 (UniProt Q9ULI3) was run?
A: inactive: 0.237

Q: How did the “log2 ratio” value turn out when NOSIP C8 (UniProt Q9Y314) was run?
A: inactive: 0.493

Q: For SNX12 C141 (UniProt Q9UMY4), which “log2 ratio” value is on record?
A: inactive: 0.251

Q: UniProt Q9Y3I0_C54 was tested. Which “log2 ratio” value did it give?
A: inactive: -0.177

Q: For TBC1D24 C89 (UniProt Q9ULP9), which “log2 ratio” value is on record?
A: inactive: -0.164

Q: With LUC7L2 C43 (UniProt Q9Y383) as the target, how does the “log2 ratio” value read?
A: inactive: 0.0239

Q: Which “log2 ratio” value does the source give for BAZ1B C953 (UniProt Q9UIG0) here?
A: inactive: 0.0695

Q: With HBS1L C31 (UniProt Q9Y450) as the target, how does the “log2 ratio” value read?
A: inactive: 0.455

Q: DIS3 C799 (UniProt Q9Y2L1) was tested. Which “log2 ratio” value did it give?
A: inactive: 0.05

Q: With ACIN1 C733 (UniProt Q9UKV3) as the target, how does the “log2 ratio” value read?
A: inactive: 0.404

Q: Which “log2 ratio” value does the source give for LUC7L2 C36 (UniProt Q9Y383) here?
A: inactive: 0.149

Q: For USP22 C185 (UniProt Q9UPT9), which “log2 ratio” value is on record?
A: inactive: -0.0563

Q: How did the “log2 ratio” value turn out when BAG5 C213 (UniProt Q9UL15) was run?
A: inactive: -0.204

Q: How did the “log2 ratio” value turn out when NISCH C185 (UniProt Q9Y2I1) was run?
A: inactive: 0.0924

Q: NOP58 C139 (UniProt Q9Y2X3) was tested. Which “log2 ratio” value did it give?
A: inactive: 0.151

Q: UniProt Q9ULE6_C845 was tested. Which “log2 ratio” value did it give?
A: inactive: 0.28

Q: COPS3 C25 (UniProt Q9UNS2) was tested. Which “log2 ratio” value did it give?
A: inactive: -0.138

Q: For SHOC2 C306 (UniProt Q9UQ13), which “log2 ratio” value is on record?
A: inactive: -0.0467

Q: For UniProt Q9UPN4_C181, which “log2 ratio” value is on record?
A: inactive: 0.138

Q: For PSMD13 C357 (UniProt Q9UNM6), which “log2 ratio” value is on record?
A: inactive: 0.14

Q: ACIN1 C1083 (UniProt Q9UKV3) was tested. Which “log2 ratio” value did it give?
A: inactive: 0.223

Q: Which “log2 ratio” value does the source give for DCTN4 C258 (UniProt Q9UJW0) here?
A: inactive: 0.0776

Q: Which “log2 ratio” value does the source give for ABT1 C37 (UniProt Q9ULW3) here?
A: inactive: 0.217

Q: For DIS3 C213 (UniProt Q9Y2L1), which “log2 ratio” value is on record?
A: inactive: 0.165

Q: VPS51 C269 (UniProt Q9UID3) was tested. Which “log2 ratio” value did it give?
A: inactive: 0.671

Q: MBD1 C57 (UniProt Q9UIS9) was tested. Which “log2 ratio” value did it give?
A: inactive: 0.582

Q: How did the “log2 ratio” value turn out when EXOSC1 C15 (UniProt Q9Y3B2) was run?
A: inactive: 0.21

Q: DIS3 C533 (UniProt Q9Y2L1) was tested. Which “log2 ratio” value did it give?
A: inactive: 0.155

Q: How did the “log2 ratio” value turn out when ZC3H4 C1302 (UniProt Q9UPT8) was run?
A: inactive: 0.081

Q: With TDRKH C109 (UniProt Q9Y2W6) as the target, how does the “log2 ratio” value read?
A: inactive: 0.0902

Q: UniProt Q9Y3U8_C48 was tested. Which “log2 ratio” value did it give?
A: inactive: 0.182

Q: How did the “log2 ratio” value turn out when VPS28 C96 (UniProt Q9UK41) was run?
A: inactive: -0.0182

Q: With ATP6V0A2 C165 (UniProt Q9Y487) as the target, how does the “log2 ratio” value read?
A: inactive: 0.161

Q: How did the “log2 ratio” value turn out when PRR12 C173 (UniProt Q9ULL5) was run?
A: inactive: 0.286

Q: How did the “log2 ratio” value turn out when INTS6 C219 (UniProt Q9UL03) was run?
A: inactive: 0.0184

Q: EPB41L3 C140 (UniProt Q9Y2J2) was tested. Which “log2 ratio” value did it give?
A: inactive: -0.168

Q: Which “log2 ratio” value does the source give for GTF3C4 C129 (UniProt Q9UKN8) here?
A: inactive: 0.463

Q: With RWDD3 C17 (UniProt Q9Y3V2) as the target, how does the “log2 ratio” value read?
A: inactive: -0.114

Q: Which “log2 ratio” value does the source give for TIMELESS C1126 (UniProt Q9UNS1) here?
A: inactive: 0.521

Q: For BAG5 C118 (UniProt Q9UL15), which “log2 ratio” value is on record?
A: inactive: -0.335

Q: Which “log2 ratio” value does the source give for BAZ1B C1045 (UniProt Q9UIG0) here?
A: inactive: 0.372

Q: How did the “log2 ratio” value turn out when EXOC6B C68 (UniProt Q9Y2D4) was run?
A: inactive: -0.103

Q: Which “log2 ratio” value does the source give for DDX20 C577 (UniProt Q9UHI6) here?
A: inactive: 0.149

Q: BAZ1B C994 (UniProt Q9UIG0) was tested. Which “log2 ratio” value did it give?
A: inactive: 0.0301

Q: How did the “log2 ratio” value turn out when POLDIP2 C143 (UniProt Q9Y2S7) was run?
A: inactive: 0.266

Q: Which “log2 ratio” value does the source give for SMC3 C650 (UniProt Q9UQE7) here?
A: inactive: -0.141

Q: MRPL11 C50 (UniProt Q9Y3B7) was tested. Which “log2 ratio” value did it give?
A: inactive: 0.342
